Reference: PubChem BioAssay AID248 (DTP/NCI, 2004)
The list is a part of this screen's results and no random one: it is rich in T/C values a quarter to a half above the control, in often repeated tests (any T/C) and in doses without a T/C. Further doses and runs are listed elsewhere. T/C: endpoint of the treated group in % of that of the vehicle group. Some doses have a count of surviving animals in place of a T/C: the source holds a T/C of zero for them, seemingly a mark for toxic or unscored doses. Some doses without a T/C left all or most animals alive at the check, yet need not have been tolerated: survival well below the control is almost never listed, so the zero probably covers shortened survival too. Counts of survivors are from the toxicity check (mostly the fifth day) where no day follows; animals may have died later. Schedule codes are those of the source, taken here to give the interval after Q, in days (D) or hours (H), and the number of doses after X. Signs of the kind (2×) stand for listed records that agree. Some entries hold several experiments; their values stand side by side, smallest first. For survival time, the PubChem record calls one and a half times the control and up active, and a quarter to a half above the control has no call in these data; cut-offs in other NCI protocols can differ. Some T/C values are followed by the survivors on the day toxicity was checked, most often the fifth; without a count, all were alive then.

System: L1210 leukemia ip in BDF1 mice, survival T/C
Assay: NCI In Vivo Anticancer Drug Screen. Data for tumor model L1210 Leukemia (intraperitoneal) in B6D2F1 (BDF1) mice
Details: T/C endpoint: mean survival time, higher T/C = longer survival
[1] = dose: 100.0 mg/kg/injection, schedule: Q01DX009 (ip), vehicle: saline
[2] = dose: 400.0 mg/kg/injection, schedule: Q04DX003 (ip), vehicle: saline
[3] = dose: 200.0 mg/kg/injection, schedule: Q01DX009 (ip), vehicle: saline
[4] = dose: 400.0 mg/kg/injection, schedule: Q01DX009 (ip), vehicle: saline
[5] = dose: 200.0 mg/kg/injection, schedule: Q01DX001 (ip), vehicle: saline
[6] = dose: 100.0 mg/kg/injection, schedule: Q01DX009 (ip), vehicle: Klucel (hydroxypropylcellulose) (HPC)
[7] = dose: 200.0 mg/kg/injection, schedule: Q01DX009 (ip), vehicle: Klucel (hydroxypropylcellulose) (HPC)
[8] = dose: 400.0 mg/kg/injection, schedule: Q04DX003 (ip), vehicle: Klucel (hydroxypropylcellulose) (HPC)
[9] = dose: 200.0 mg/kg/injection, schedule: Q01DX009 (ip), vehicle: saline with Tween-80

In the case of `O=C1NCCc2cc3c(cc21)OCO3`, the survivor count (dose: 200.0 mg/kg/injection, schedule: Q04DX002 (ip), vehicle: saline) is reported as 3 of 3 and the survivor count (dose: 400.0 mg/kg/injection, schedule: Q04DX002 (ip), vehicle: saline) is reported as 2 of 3.

With `CC(C)(C)C1CC[N-]CC1.CC(C)(C)C1CC[N-]CC1.[Cl][Pt+2]([Cl])([Cl])[Cl]` the survivor count (dose: 50.0 mg/kg/injection, schedule: Q01DX009 (ip), vehicle: saline) was 1 of 6, the survivor count [1] was 0 of 6 and the survivor count (dose: 200.0 mg/kg/injection, schedule: Q04DX003 (ip), vehicle: saline) was 2 of 6. For the same compound, the survivor count [2] was 0 of 6.

In the case of `CNC(=O)N(C)N`, the survivor count [1] is reported as 1 of 6, the survivor count [3] is reported as 0 of 6 and the survivor count [4] is reported as 0 of 6.

With `Cc1c([N+](=O)[O-])cc(C(C)(C)C)c(OC(=O)CCl)c1[N+](=O)[O-]` the survivor count (dose: 75.0 mg/kg/injection, schedule: Q01DX009 (ip), vehicle: Klucel (hydroxypropylcellulose) (HPC)) was 0 of 6, the survivor count (dose: 150.0 mg/kg/injection, schedule: Q01DX009 (ip), vehicle: Klucel (hydroxypropylcellulose) (HPC)) was 0 of 6 and the survivor count (dose: 300.0 mg/kg/injection, schedule: Q01DX009 (ip), vehicle: Klucel (hydroxypropylcellulose) (HPC)) was 0 of 6.

`C=COCC(C)C` (tested in a mixture with another compound) was tested, and the survivor count (dose: 4.67 mg/kg/injection, schedule: Q01DX009 (ip), vehicle: Klucel (hydroxypropylcellulose) (HPC)) was 3 of 6, the survivor count (dose: 12.5 mg/kg/injection, schedule: Q01DX001 (ip), vehicle: other) was 3 of 6 and the survivor count (dose: 12.5 mg/kg/injection, schedule: Q01DX009 (ip), vehicle: other) was 1 of 6. For the same compound, the survivor count (dose: 12.5 mg/kg/injection, schedule: Q04DX003 (ip), vehicle: saline) was 6 of 6, the survivor count (dose: 18.8 mg/kg/injection, schedule: Q01DX009 (ip), vehicle: saline) was 6 of 6 and the survivor count (dose: 25.0 mg/kg/injection, schedule: Q01DX001 (ip), vehicle: other) was 0 of 6. The survivor count (dose: 25.0 mg/kg/injection, schedule: Q01DX009 (ip), vehicle: Klucel (hydroxypropylcellulose) (HPC)) was 0 of 6, the survivor count (dose: 25.0 mg/kg/injection, schedule: Q04DX003 (ip), vehicle: other) was 4 of 6 and the survivor count (dose: 50.0 mg/kg/injection, schedule: Q01DX001 (ip), vehicle: other) was 0 of 6. The survivor count (dose: 50.0 mg/kg/injection, schedule: Q01DX009 (ip), vehicle: alcohol) was 1 of 6, the survivor count (dose: 50.0 mg/kg/injection, schedule: Q04DX003 (ip), vehicle: Klucel (hydroxypropylcellulose) (HPC)) was 2 of 6 and the survivor count (dose: 50.0 mg/kg/injection, schedule: Q04DX003 (ip), vehicle: other) was 2 of 6. For the same compound, the survivor count (dose: 75.0 mg/kg/injection, schedule: Q01DX001 (ip), vehicle: saline) was 4 of 6, the survivor count (dose: 80.0 mg/kg/injection, schedule: Q01DX009 (ip), vehicle: alcohol) was 0 of 6 and the survivor count (dose: 100.0 mg/kg/injection, schedule: Q01DX001 (ip), vehicle: Klucel (hydroxypropylcellulose) (HPC)) was 0 of 6 and 2 of 6. The survivor count (dose: 100.0 mg/kg/injection, schedule: Q04DX003 (ip), vehicle: Klucel (hydroxypropylcellulose) (HPC)) was 0 of 6, the survivor count (dose: 100.0 mg/kg/injection, schedule: Q04DX003 (ip), vehicle: other) was 2 of 6 and the survivor count (dose: 100.0 mg/kg/injection, schedule: Q04DX003 (ip), vehicle: saline with Tween-80) was 6 of 6. For the same compound, the survivor count (dose: 120.0 mg/kg/injection, schedule: Q01DX009 (ip), vehicle: alcohol) was 0 of 6, the survivor count (dose: 150.0 mg/kg/injection, schedule: Q01DX001 (ip), vehicle: saline) was 0 of 5 and the survivor count (dose: 150.0 mg/kg/injection, schedule: Q04DX003 (ip), vehicle: saline) was 4 of 6. The survivor count (dose: 200.0 mg/kg/injection, schedule: Q01DX001 (ip), vehicle: Klucel (hydroxypropylcellulose) (HPC)) was 0 of 6 and 2 of 6, the survivor count (dose: 200.0 mg/kg/injection, schedule: Q01DX001 (ip), vehicle: other) was 0 of 6 (2×) and the survivor count (dose: 200.0 mg/kg/injection, schedule: Q04DX003 (ip), vehicle: saline with Tween-80) was 5 of 6. For the same compound, the survivor count (dose: 300.0 mg/kg/injection, schedule: Q01DX001 (ip), vehicle: saline) was 1 of 6, the survivor count (dose: 300.0 mg/kg/injection, schedule: Q04DX003 (ip), vehicle: saline) was 1 of 6 (2×) and the survivor count (dose: 400.0 mg/kg/injection, schedule: Q01DX001 (ip), vehicle: Klucel (hydroxypropylcellulose) (HPC)) was 0 of 6. The survivor count (dose: 400.0 mg/kg/injection, schedule: Q01DX001 (ip), vehicle: other) was 0 of 6 and 1 of 6 and the survivor count (dose: 400.0 mg/kg/injection, schedule: Q04DX003 (ip), vehicle: saline with Tween-80) was 0 of 6.

For `Cc1cc2nnc(C)n2c2ccccc12`, the survivor count [5] was 0 of 4 and the survivor count (dose: 400.0 mg/kg/injection, schedule: Q01DX001 (ip), vehicle: saline) was 0 of 4.

With `O=[N+]([O-])/C=C/C(Cl)(Cl)Cl` the survivor count [6] was 0 of 6 and the survivor count [7] was 0 of 6.

In the case of `O=C1/C(=C\c2ccccc2)COC/C1=C\c1ccccc1`, the T/C [3] is reported as 126 % of control [5 of 6 alive].

In the case of `O=C1OC(=O)C2C3C=CC(CC3)C12` (configuration not stated), the survivor count [8] is reported as 0 of 6 and the survivor count [2] is reported as 3 of 4.

With `O=S1(=O)CC2(N3CCCCC3)CCCCC21` (configuration not stated) the survivor count (dose: 2.5 mg/kg/injection, schedule: Q01DX009 (ip), vehicle: saline) was 6 of 6, the survivor count [1] was 1 of 6 and the survivor count [3] was 0 of 6. For the same compound, the survivor count [4] was 0 of 6.

`O=C(O)/C=C\c1ccccc1` was tested, and the survivor count (dose: 400.0 mg/kg/injection, schedule: Q01DX009 (ip), vehicle: other) was 6 of 6.

For `CN(Cc1cnc2nc(N)nc(N)c2n1)c1ccc(C(=O)NC(CCC(=O)O)C(=O)O)cc1I` (configuration not stated), the T/C (dose: 1.25 mg/kg/injection, schedule: Q01DX009 (ip), vehicle: sodium bicarbonate) was 147 % of control.

In the case of `Cn1c2c(c3ccccc31)C(=C(c1ccccc1)c1ccccc1)c1ccccc1-2`, the survivor count (dose: 400.0 mg/kg/injection, schedule: Q04DX002 (ip), vehicle: saline with Tween-80) is reported as 3 of 3.

With `COc1ccc2c3c(ccc2c1)C(=O)/C(=C\O)CC3` the survivor count [6] was 5 of 6, the survivor count [7] was 2 of 6 and the survivor count (dose: 400.0 mg/kg/injection, schedule: Q01DX009 (ip), vehicle: Klucel (hydroxypropylcellulose) (HPC)) was 0 of 6. For the same compound, the survivor count [8] was 1 of 6.

In the case of `Cc1ccc2c(Cl)ccc(Cl)c2n1`, the survivor count (dose: 400.0 mg/kg/injection, schedule: Q04DX002 (ip), vehicle: carboxymethylcellulose (CMC)) is reported as 0 of 3 and the survivor count (dose: 400.0 mg/kg/injection, schedule: Q04DX003 (ip), vehicle: carboxymethylcellulose (CMC)) is reported as 0 of 6.

For `COc1nc(=S)n2[nH]cnc2n1`, the survivor count [2] was 3 of 6.

`CCn1c(COc2ccc(Cl)cc2Cl)c(COC(=O)c2cccc(Cl)c2)c2ccccc21` was tested, and the survivor count (dose: 400.0 mg/kg/injection, schedule: Q01DX009 (ip), vehicle: carboxymethylcellulose (CMC)) was 3 of 3.

`CC1CCCNC1C` (configuration not stated) was tested, and the survivor count [9] was 0 of 6 and the survivor count (dose: 400.0 mg/kg/injection, schedule: Q01DX009 (ip), vehicle: saline with Tween-80) was 0 of 6.

With `CCCCOc1cc(C(=O)O)ccc1[N+](=O)[O-]` the survivor count [9] was 6 of 6.

`Cc1ccnc(NC(=O)Nc2ccccc2F)c1` was tested, and the survivor count [5] was 6 of 6.
